The values below come from PMC7819943, “Rice protein-binding microarrays: a tool to detect cis-acting elements near promoter regions in rice”.

The other results are listed elsewhere or left out.

In this experiment the target is T1, OsSMF1 (Oryza sativa, UniProt Q6ZLB0 1-436).
T1 sequence: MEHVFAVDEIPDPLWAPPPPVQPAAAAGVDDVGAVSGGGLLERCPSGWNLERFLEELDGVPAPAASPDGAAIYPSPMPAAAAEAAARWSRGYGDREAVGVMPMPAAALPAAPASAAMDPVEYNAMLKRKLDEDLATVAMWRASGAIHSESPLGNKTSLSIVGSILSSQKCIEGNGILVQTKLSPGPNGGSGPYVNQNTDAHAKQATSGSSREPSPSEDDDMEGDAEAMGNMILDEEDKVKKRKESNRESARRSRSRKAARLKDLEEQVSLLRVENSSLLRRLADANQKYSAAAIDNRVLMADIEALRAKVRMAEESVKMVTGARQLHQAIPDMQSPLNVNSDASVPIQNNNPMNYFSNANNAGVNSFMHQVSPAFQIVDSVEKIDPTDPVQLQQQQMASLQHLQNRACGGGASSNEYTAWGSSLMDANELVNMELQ
Description: protein-binding microarray (RPBM); PBS, 2% BSA, 51.3 ng/ul salmon testes DNA, 50 uM zinc acetate, 200 nM TF, 25 C, 1 h; high values mean tight binding. The following applies: protein: recombinant; tags: N-terminal polyhistidine and DsRed monomer fusion (pET32a); chain copies: 2; label: CyDye5-dUTP incorporated in the synthesized complementary strand; 3' TTTTT single-stranded linker to array surface; dsDNA, one strand shown. An outline of the steps:
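Transcription factors were made in E. coli BL21-CodonPlus as N-terminal fusions to a polyhistidine tag and DsRed, then purified on Ni–NTA. After primer extension with Cy5-dUTP and blocking with 2% BSA, a custom Agilent array was exposed for 1 h at 25 °C to 200 nM protein in PBS, 2% BSA, salmon testes DNA and 50 µM zinc acetate. Washed arrays were scanned on an Axon 4000B, and the binding signal is per-feature fluorescence intensity in arbitrary units.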
Turning to “CGTCATGGGAGTCGGGGTTGGGTCGCCACCGCTCTAGATCCGGAGTCACCTAGTGCAG”, the binding signal was 3440 fluorescence intensity (a.u.). Turning to “TCTCGGCGACAGACGTGCGCCGCACGATCTAAGTCAGTGGCGGAGTCACCTAGTGCAG”, the binding signal is 3500 fluorescence intensity (a.u.). In the case of “TCCCGCCAAATCACCGATCCGCGCCTCACGCCACGTCAACCGGAGTCACCTAGTGCAG”, the binding signal is 16000 fluorescence intensity (a.u.).

“AAGTAAACTACATCCCTGTGGCCCTTTGTGGCTGCATCATCGGAGTCACCTAGTGCAG”: the binding signal is 27800 fluorescence intensity (a.u.).

Take “GTTCGATCTGAGTCTGAATCATGAGCTTATGCCTGATTGACGGAGTCACCTAGTGCAG”: the binding signal is 4290 fluorescence intensity (a.u.). As for “ACCACCGCCGCCGCCGCCGCCGCGTATGGGCTCGCCGGCGCGGAGTCACCTAGTGCAG”, the binding signal is 3210 fluorescence intensity (a.u.). As to “ACTTAACACCCCATCTTCTACCCACCTCTCTCACTCCAGCCGGAGTCACCTAGTGCAG”, the binding signal was 15500 fluorescence intensity (a.u.). In the case of “TTGTTTCTGTTTCAGGTATGAGGTCATCATTCTCCAGTATCGGAGTCACCTAGTGCAG”, the binding signal was 5810 fluorescence intensity (a.u.). The value for “TGCGGATAGACTTCCACAACTGCCATGTCACCGCGATGTTCGGAGTCACCTAGTGCAG” was 11200 fluorescence intensity (a.u.). In the case of “ATAACTCGGGTCGGACTCGGACCTCAGGCCCACGTATTCCCGGAGTCACCTAGTGCAG” it was 3220 fluorescence intensity (a.u.).

Take “CTCCCGGAGCTCGGCCGCCTCTTCACCTCCGACACCCGCGCGGAGTCACCTAGTGCAG”: the binding signal was 3460 fluorescence intensity (a.u.). The value for “AAGGTGTGCCCCAACCTACTTTTACATCCACATTGTAACACGGAGTCACCTAGTGCAG” was 6820 fluorescence intensity (a.u.); that for “TGCATACGTGTAGCTTCAAGTTCACTGCACATCACCTTCTCGGAGTCACCTAGTGCAG” was 4430 fluorescence intensity (a.u.); that for “AAATAGTCACACATAAAATACTATTCATATTTTATCATCTCGGAGTCACCTAGTGCAG” was 13500 fluorescence intensity (a.u.). On to “CCACCAATTTTCGAATTTAGTGTCATCAGTGATTTGTCGCCGGAGTCACCTAGTGCAG”, for which the binding signal was 3350 fluorescence intensity (a.u.).

Take “ACTGAGACAATCTGGAGTGTACGTTGCTTCATCCAATGGTCGGAGTCACCTAGTGCAG”: the binding signal is 26600 fluorescence intensity (a.u.). The value for “TCATCATCAAGACTGAGTCACTGACACGTGTGCACCTATGCGGAGTCACCTAGTGCAG” was 27900 fluorescence intensity (a.u.); that for “TGCAAATTTTCAAAATCGACTACCAGTAGATGTTTACTCCCGGAGTCACCTAGTGCAG” was 14000 fluorescence intensity (a.u.); that for “TGGCAATGATGAACGGCTACTGATATACTCCCTCATATTTCGGAGTCACCTAGTGCAG” was 24300 fluorescence intensity (a.u.).

With “TTTAACTATGAGAATATATAGTACGTGTTGAGACATGAAACGGAGTCACCTAGTGCAG”, the binding signal was 27800 fluorescence intensity (a.u.). The value for “GGCTACCCCAAATATTGTACTGGTGTGGTTATGGTGAATACGGAGTCACCTAGTGCAG” was 23600 fluorescence intensity (a.u.). In the case of “GTGGGAGGCGGTGGTGGTGGTGAAGGAGGTGGCCTTGGAGCGGAGTCACCTAGTGCAG” it was 4290 fluorescence intensity (a.u.). The value for “GGAGGTAGGTGCGGGAGATTTGCTCAGCGCAAAGAGATGACGGAGTCACCTAGTGCAG” was 3790 fluorescence intensity (a.u.); that for “ATATCTAGATGGAGCATATAAATGCACTATGGCGAAAACTCGGAGTCACCTAGTGCAG” was 3220 fluorescence intensity (a.u.); that for “GAAAACTCTAAAGCTTCATCATGGGTGCAGACACTCTGCCCGGAGTCACCTAGTGCAG” was 3150 fluorescence intensity (a.u.). On to “TCCGTCCTCGAGCTCGCCCGCGTGGCGATGCCCTCCCCTACGGAGTCACCTAGTGCAG”, for which the binding signal is 3280 fluorescence intensity (a.u.). In the case of “GAGCAAGTGTTGACATTGGTTTTGTCGTTGCTTCCCTTCTCGGAGTCACCTAGTGCAG” it was 4350 fluorescence intensity (a.u.).

As to “TTAACTCGGTCTTCATCCTGTGTGACGCCTACGATACAACCGGAGTCACCTAGTGCAG”, the binding signal is 4380 fluorescence intensity (a.u.).

Regarding “AATCGGTGAATGTATTGATTGGATTTGCGTGTTCATTGTTCGGAGTCACCTAGTGCAG”, the binding signal is 12500 fluorescence intensity (a.u.). In the case of “AGGCGGTCCTTGGAGGACCGTGTCCACGCGTGACCAGCGCCGGAGTCACCTAGTGCAG” it was 4220 fluorescence intensity (a.u.).

Take “CACTCCCCTCGCACTCTCGACTCATTCCAATCCACATCGTCGGAGTCACCTAGTGCAG”: the binding signal is 3350 fluorescence intensity (a.u.).

Consider “TGGGAGGGGAATTTTCGTGAGCAAACCGGGGATTTCTTCGCGGAGTCACCTAGTGCAG”, for which the binding signal was 3240 fluorescence intensity (a.u.). In the case of “AATAGTACGTTACCATCCTCCATATCATCGCTGACGCTTCCGGAGTCACCTAGTGCAG” it was 3540 fluorescence intensity (a.u.). In the case of “GGTCATTCTTTGCTAAAGAGAAATGATCACTATGAGTCAGCGGAGTCACCTAGTGCAG” it was 4910 fluorescence intensity (a.u.).

In the case of “ATATGTTTTACCCTGCCTCTATAAATATGGGTCATAGGAGCGGAGTCACCTAGTGCAG”, the binding signal was 3360 fluorescence intensity (a.u.). In the case of “AGCTTTTGTACCATCGGGGCAAAGCAGTGGTCTCATACAACGGAGTCACCTAGTGCAG” it was 5490 fluorescence intensity (a.u.). The value for “TTGTTAACTGCTGATGTGTGACCTGACTGTTAAAAGCTGCCGGAGTCACCTAGTGCAG” was 9170 fluorescence intensity (a.u.); that for “TTAAACACTCACATAGAAACTTGGTTTCCATCAGCAATGTCGGAGTCACCTAGTGCAG” was 25000 fluorescence intensity (a.u.); that for “ACCCCTCTCCACACTCCTGTCGCTGACGCTGCTGCTCCCGCGGAGTCACCTAGTGCAG” was 3770 fluorescence intensity (a.u.). “TCCTGTCCCTCGTGTTTGTGTCACGTTCGATTCTCCCAAGCGGAGTCACCTAGTGCAG”: the binding signal was 3420 fluorescence intensity (a.u.). In the case of “AATAAATGAGGGAGTTGCTCATCCAAGTTGCTGAATCAAACGGAGTCACCTAGTGCAG” it was 30100 fluorescence intensity (a.u.). The value for “AGATGCACTCATAGCATGACACATCAGTGTTAGTAAGAATCGGAGTCACCTAGTGCAG” was 3890 fluorescence intensity (a.u.); that for “CGCCGCCTGCCCCTGCGCCTGCAGCCTCTGCGCCTCCTGCCGGAGTCACCTAGTGCAG” was 3560 fluorescence intensity (a.u.).

For “GCAGAGCTAAGAAAGTATGGCACGTCACAGTTGCGATCAGCGGAGTCACCTAGTGCAG”, the binding signal is 5050 fluorescence intensity (a.u.). In the case of “GCCCTCCGCGTCCCGCCGGCGTCGCTGCTCGAGGTCGGCACGGAGTCACCTAGTGCAG” it was 3870 fluorescence intensity (a.u.); in that of “TCCCGAACGTTCCATTCAGCACACGTCGACATCGACTTTGCGGAGTCACCTAGTGCAG”, 4330 fluorescence intensity (a.u.). In the case of “GATGTCCCGGCCGTCCACGTGGCCCGATGGAATGCTGCTCCGGAGTCACCTAGTGCAG” it was 17900 fluorescence intensity (a.u.). Take “CGCGCTGCTGCTGCTGCTGATGCTGTCGCAGTACACTCCCCGGAGTCACCTAGTGCAG”: the binding signal is 3140 fluorescence intensity (a.u.). “ATGCTTACCTCATTGCAGCTAGTCCACCATCAATTCCACTCGGAGTCACCTAGTGCAG”: the binding signal was 3750 fluorescence intensity (a.u.). The value for “TTTATGCGGCGTGGACAGTCCCCGTCGCACCGACATGTGGCGGAGTCACCTAGTGCAG” was 3240 fluorescence intensity (a.u.). In the case of “AGCTAGGCAAAAGCGCCGCATCTGACTGCTTCGTCGCTTTCGGAGTCACCTAGTGCAG” it was 3560 fluorescence intensity (a.u.). The value for “TGAATTTATTAAGCCTAATTAATCCGCCATTAGCACGTGTCGGAGTCACCTAGTGCAG” was 3520 fluorescence intensity (a.u.); that for “CTTCAGATACGTGGACAGCAACGTGTGCAAGGACACGTGTCGGAGTCACCTAGTGCAG” was 13800 fluorescence intensity (a.u.); that for “TTAATGCATACTGACAGCTGTTTATGTGCTTCAAATTTACCGGAGTCACCTAGTGCAG” was 4700 fluorescence intensity (a.u.).
